Record: PubChem BioAssay AID1053208 (Peter MacCallum Cancer Centre, 2014)
Assay: 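Find knock-downs that sensitise mouse osteosarcoma cells to doxorubicin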 (primary screen). System: mouse osteosarcoma cells, early-passage culture from an engineered mouse model of fibroblastic bone tumour. Reagent: siRNA pool against mouse genes, 40 nM. Duration: about 120 h (48 h before drug, then 72 h with drug). Challenge: doxorubicin 100 nM for 72 h, roughly 30-40% inhibitory dose. Read-out: 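Viability read as ATP luminescence after 72 h of 100 nM doxorubicin or none, duplicate wells averaged, scaled to non-targeting siRNA, then expressed as robust z-scores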. Direction: viability z-score with doxorubicin and doxorubicin viability vs non-targeting: higher = more viable cells under doxorubicin; viability z-score without drug: higher = more viable cells with knock-down alone; z-score of drug to no-drug ratio: higher = less drug sensitisation by knock-down. Active means: 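Called active if knock-down leaves viability unchanged without drug (z within -2 to 2) but lowers it with doxorubicin (z at or under -2)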.
Shown is one part, drawn at random, of about 17,000 deposited reagents. Of all reagents, 788 (4.7%) were called active. 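Calls rest on z-score classes alone; an extra cut-off of viability at most 70% of control was not applied to them.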 A number with no mark means an inactive call.

| gene | combined z-score class | viability z-score with doxorubicin | viability z-score without drug | z-score of drug to no-drug ratio | doxorubicin viability vs non-targeting |
| --- | --- | --- | --- | --- | --- |
| Bche | low cell count without drug only | -0.22 | -2.7 | 2.02 | 0.92 |
| Tnp2 | no change with or without drug | 0.45 | 1.18 | -0.22 | 0.98 |
| Kif11 | no change with or without drug | -1.35 | -1.85 | 0 | 0.82 |
| Or9e1 | no change with or without drug | -0.67 | 0.17 | -0.67 | 0.88 |
| Tro | no change with or without drug | -1.12 | -0.84 | -0.56 | 0.84 |
| Armcx3 | no change with or without drug | -0.11 | -0.51 | 0.34 | 0.93 |
| Gldc | no change with or without drug | 0.11 | 0.67 | -0.22 | 0.95 |
| Fbxo48 | no change with or without drug | 1.35 | 0.84 | 0.9 | 1.06 |
| Vmn1r180 | no change with or without drug | 0.34 | 0.51 | 0.11 | 0.97 |
| Fmod | no change with or without drug | 1.01 | 1.85 | -0.11 | 1.03 |
| Fpgs | no change with or without drug | -0.67 | -0.51 | -0.22 | 0.88 |
| Psmd9 | high cell count without drug only | 1.35 | 2.7 | -0.34 | 1.06 |
| Mfn2 | no change with or without drug | -0.67 | -0.51 | -0.22 | 0.88 |
| Nalcn | no change with or without drug | 0.45 | 0.17 | 0.45 | 0.98 |
| Ankrd13b | no change with or without drug | 0 | -0.67 | 0.56 | 0.94 |
| Trim8 | no change with or without drug | -0.11 | -0.17 | 0.11 | 0.93 |
| Apbb3 | no change with or without drug | -1.12 | -0.51 | -0.79 | 0.84 |
| Pcdha10 | no change with or without drug | -1.57 | -0.84 | -1.01 | 0.8 |
| Slc4a1ap | no change with or without drug | 0.11 | 0.34 | 0 | 0.95 |
| Pnrc2 | high cell count with doxorubicin only | 2.02 | 0.17 | 2.14 | 1.12 |
| Tnfrsf12a | no change with or without drug | -0.22 | -0.84 | 0.45 | 0.92 |
| Rassf5 | no change with or without drug | 0.56 | 1.01 | 0 | 0.99 |
| Phxr5 | no change with or without drug | -1.57 | 0.17 | -1.69 | 0.8 |
| Tmprss11d | no change with or without drug | 1.12 | 0.17 | 1.12 | 1.04 |
| Eif2b2 | no change with or without drug | -1.12 | 0.84 | -1.57 | 0.84 |
| Gnas | no change with or without drug | -0.67 | -0.51 | -0.22 | 0.88 |
| Dele1 | no change with or without drug | 0.9 | 1.18 | 0.22 | 1.02 |
| Pfkp | high cell count without drug only | 0.67 | 3.71 | -1.46 | 1 |
| Disp3 | no change with or without drug | 1.57 | 1.69 | 0.56 | 1.08 |
| Unc119 | no change with or without drug | 0.45 | 0.17 | 0.45 | 0.98 |
| Or2f1b | no change with or without drug | 1.01 | 0.84 | 0.56 | 1.03 |
| Shld2 | no change with or without drug | -0.56 | -1.18 | 0.34 | 0.89 |
| Or5m9b | no change with or without drug | 0.34 | 0.17 | 0.34 | 0.97 |
| Cct4 | no change with or without drug | 1.57 | -1.35 | 2.92 | 1.08 |
| Jarid2 | no change with or without drug | -1.57 | -1.52 | -0.56 | 0.8 |
| Or4k2 | no change with or without drug | 0.45 | -0.17 | 0.67 | 0.98 |
| Bpifb2 | no change with or without drug | 1.12 | 1.18 | 0.45 | 1.04 |
| Stkld1 | no change with or without drug | -1.12 | -1.18 | -0.34 | 0.84 |
| Cds1 | no change with or without drug | -1.69 | -1.18 | -0.9 | 0.79 |
| 2210415K24RIK | no change with or without drug | -0.22 | 0.17 | -0.22 | 0.92 |
| Zfp84 | no change with or without drug | 0.22 | 1.69 | -0.79 | 0.96 |
| Clrn3 | no change with or without drug | 0 | 0.17 | 0 | 0.94 |

Entries above whose target name starts with S or s:
| gene | combined z-score class | viability z-score with doxorubicin | viability z-score without drug | z-score of drug to no-drug ratio | doxorubicin viability vs non-targeting |
| --- | --- | --- | --- | --- | --- |
| Slc4a1ap | no change with or without drug | 0.11 | 0.34 | 0 | 0.95 |
| Shld2 | no change with or without drug | -0.56 | -1.18 | 0.34 | 0.89 |
| Stkld1 | no change with or without drug | -1.12 | -1.18 | -0.34 | 0.84 |

Further entries follow:
| gene | combined z-score class | viability z-score with doxorubicin | viability z-score without drug | z-score of drug to no-drug ratio | doxorubicin viability vs non-targeting |
| --- | --- | --- | --- | --- | --- |
| Aicda | no change with or without drug | -1.57 | -0.84 | -1.01 | 0.8 |
| Aif1 | low cell count with doxorubicin only (active) | -2.02 | -0.84 | -1.57 | 0.76 |
| Grik2 | no change with or without drug | 0.22 | -0.17 | 0.45 | 0.96 |
| Myo10 | no change with or without drug | 1.57 | -0.17 | 1.91 | 1.08 |
| Akr1b1 | no change with or without drug | 0 | 1.52 | -0.9 | 0.94 |
| Arsj | low cell count with and without drug | -2.47 | -4.89 | 1.24 | 0.72 |
| Or13a17 | no change with or without drug | -1.57 | -0.51 | -1.24 | 0.8 |
| Oas1b | no change with or without drug | -0.11 | -0.67 | 0.45 | 0.93 |
| Or51k2 | no change with or without drug | -0.45 | -0.51 | 0 | 0.9 |
| 4921524J17Rik | high cell count without drug only | -1.46 | 2.7 | -2.81 | 0.81 |
| Apln | no change with or without drug | -0.22 | 0.34 | -0.34 | 0.92 |
| Or51ah3 | no change with or without drug | -0.9 | -0.17 | -0.79 | 0.86 |
| Tjap1 | no change with or without drug | -1.46 | -1.18 | -0.67 | 0.81 |
| Spred1 | no change with or without drug | 0.45 | 0.67 | 0.11 | 0.98 |
| Rdh16f2 | no change with or without drug | 0.22 | 1.18 | -0.45 | 0.96 |
| Dcaf7 | no change with or without drug | -0.22 | -0.17 | 0 | 0.92 |
| Sash3 | low cell count with doxorubicin only (active) | -3.37 | -1.35 | -2.7 | 0.64 |
| Ift70a1 | high without drug; low with doxorubicin | -2.25 | 2.02 | -3.26 | 0.74 |
| Pno1 | low cell count with and without drug | -4.16 | -5.56 | -0.67 | 0.57 |
| AI661453 | low cell count without drug only | -1.35 | -2.02 | 0.11 | 0.82 |
| Dvl3 | no change with or without drug | 0.67 | 0.51 | 0.45 | 1 |
